The exact form of at least one protein or probe is not confirmed. Where cells or extracts were used, other partners may take part.

Sequences of proteins named here, by UniProt entry; tags and fusion partners are left off. A change or cut given only in a name is not applied to a line headed by its entry.
UniProt P10242: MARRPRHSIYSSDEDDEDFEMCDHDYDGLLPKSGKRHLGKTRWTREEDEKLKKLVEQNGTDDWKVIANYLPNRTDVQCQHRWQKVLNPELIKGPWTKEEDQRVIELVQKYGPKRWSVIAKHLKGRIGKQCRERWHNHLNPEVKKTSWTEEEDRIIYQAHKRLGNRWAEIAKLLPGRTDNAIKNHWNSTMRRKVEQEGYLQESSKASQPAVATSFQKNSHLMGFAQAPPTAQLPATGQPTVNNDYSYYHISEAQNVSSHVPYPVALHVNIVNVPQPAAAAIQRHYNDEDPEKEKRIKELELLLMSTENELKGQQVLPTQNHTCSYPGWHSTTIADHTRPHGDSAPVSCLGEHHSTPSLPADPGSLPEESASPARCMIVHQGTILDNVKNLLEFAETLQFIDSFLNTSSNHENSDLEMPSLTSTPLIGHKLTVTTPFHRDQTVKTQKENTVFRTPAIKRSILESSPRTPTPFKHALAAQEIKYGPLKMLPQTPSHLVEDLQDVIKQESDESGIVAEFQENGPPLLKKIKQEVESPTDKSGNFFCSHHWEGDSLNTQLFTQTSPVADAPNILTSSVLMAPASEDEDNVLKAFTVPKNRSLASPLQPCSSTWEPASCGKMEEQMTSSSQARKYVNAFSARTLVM

These results are taken from article PMC524034.

For the data set, the target named is c-Myb (K-562 nuclear extract) (human) (UniProt P10242). Kind of data set: competition with a labelled probe. Conditions: vs GS945 probe, significant reduction especially at >=100-fold excess; 1 mM Tris pH 7.5, 7.5 mM NaCl, 1 mM EDTA, 0.7% glycerol, 0.1 mM DTT, 2 ug poly(dI-dC), 20 ul, 5 ug nuclear extract, 2.4 ng probe (Fig 2: 3.5 ug, 1 ng); protein in an extract.

For the sequence “TACAGGCATAACGGTTCCGTAGTGA (double strand) [c-Myb consensus competitor]”, the binding result is recorded as “binds”.
